PubChem BioAssay AID1259425 | University of Nebraska Medical Center – 2018
Here is an unselected part of about 14,000 deposited reagents. The numbers tell different reagents against one gene apart. Further read-outs or replicates are left out here. The record does not give: the time to read-out.

Aim: 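Seek colon cancer weak points whose silencing resembles KSR1 loss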 (primary screen)
System: HCT116 human colon cancer cells
Knock-down reagent: siRNA pool against human genes, 50 nM siRNA
Detection: 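After 50 nM siRNA pool, branched-DNA assay measures six marker transcripts per well, minus blank, normalised to the geometric mean of two housekeeping transcripts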
Scale: BNIP3L mRNA: higher = more BNIP3L transcript after knockdown; NDRG1 mRNA: higher = more NDRG1 transcript after knockdown; BNIP3 mRNA: higher = more BNIP3 transcript after knockdown

gene,reagent no.,"BNIP3L mRNA, set 1","NDRG1 mRNA, set 1","BNIP3 mRNA, set 1"
DHPS,1,0.0981,0.138,0.314
IARS2,1,0.112,0.172,0.33
FGF12,1,0.223,0.0643,0.598
SYNGR3,1,0.206,0.36,0.248
PDE10A,1,0.136,0.109,0.255
NPDC1,1,0.0964,0.14,0.468
COL4A5,1,0.0949,0.308,0.343
NTF3,1,0.0614,0.132,0.249
DIAPH2,1,0.0562,0.174,0.292
ZNF345,1,0.134,0.238,0.48
SERPINB5,1,0.158,0.216,0.234
LSM5,1,0.115,0.545,0.255
RTRAF,1,0.128,0.445,0.36
TRMT1,1,0.111,0.611,0.396
ABCA5,1,0.0728,0.248,0.386
CFAP91,1,0.155,0.0998,0.351
LIN28A,1,0.209,0.146,0.351
KPNB1,1,0.0835,0.132,0.258
GAPDHS,1,0.0933,1.72,0.312
SLC4A5,1,0.186,0.323,0.259
LENG8,1,0.194,0.493,0.388
CCSER2,1,0.12,0.222,0.241
EI24,1,0.0735,0.117,0.203
CHMP2B,1,0.147,0.685,0.759
GABARAP,1,0.301,0.174,0.186
UXT,1,0.0718,0.0877,0.3
MRPL45,1,0.166,0.349,0.29
SLC6A9,1,0.0978,0.423,0.289
CHRM2,1,0.109,0.301,0.226
WDR87,1,0.168,0.416,0.285
ATAD3A,1,0.0745,0.508,0.285
SLC22A23,1,0.0963,0.182,0.186
SLC22A23,2,0.176,0.228,0.514
TMEM161A,1,0.124,0.325,0.179
FOXJ1,1,0.184,0.384,0.343
NARS2,1,0.0651,0.187,0.344
ODAD2,1,0.0717,0.112,0.334
TMEM47,1,0.134,0.451,0.394
LYL1,1,0.0608,0.782,0.399
NAP1L4,1,0.118,1.2,0.302
KIAA0586,1,0.0874,0.325,0.328
AK9,1,0.0961,0.0925,0.192
ZFPL1,1,0.221,0.333,0.235
LYZL6,1,0.151,0.266,0.335
UBE2C,1,0.0607,0.141,0.314
ZNF606,1,0.137,0.0569,0.36
POGK,1,0.19,0.507,0.688
VAMP4,1,0.231,0.362,0.361
PTP4A1,1,0.0932,0.0959,0.238
INAVA,1,0.052,0.4,0.536

Single entries from the entries so far:
Result for POGK under “BNIP3 mRNA, set 1”: 0.688
Under “NDRG1 mRNA, set 1”, FOXJ1 has 0.384
ODAD2, BNIP3 mRNA, set 1 → 0.334
Result for TMEM161A under “NDRG1 mRNA, set 1”: 0.325
